Measured values from patent publication US20210085785A1 (TRUEBINDING, published 2021).
No constants are given. Whether binding was seen depends on the method and setting. For part of these data: Binding seen in cells or lysates may run through a third protein. Some entries that bind do so weakly or less than the wild type. For part of these data: Sequences can lack the tags named with a protein. Each block holds one molecule with its values, some of them ahead of it.

Key:
[1] = biological target: T1, Flag-tagged hLRIG1 (human) (UniProt Q96JA1); test: co-immunoprecipitation: anti-HA pull-down from co-transfected 293T lysate, blot probed with anti-Flag
T1 sequence: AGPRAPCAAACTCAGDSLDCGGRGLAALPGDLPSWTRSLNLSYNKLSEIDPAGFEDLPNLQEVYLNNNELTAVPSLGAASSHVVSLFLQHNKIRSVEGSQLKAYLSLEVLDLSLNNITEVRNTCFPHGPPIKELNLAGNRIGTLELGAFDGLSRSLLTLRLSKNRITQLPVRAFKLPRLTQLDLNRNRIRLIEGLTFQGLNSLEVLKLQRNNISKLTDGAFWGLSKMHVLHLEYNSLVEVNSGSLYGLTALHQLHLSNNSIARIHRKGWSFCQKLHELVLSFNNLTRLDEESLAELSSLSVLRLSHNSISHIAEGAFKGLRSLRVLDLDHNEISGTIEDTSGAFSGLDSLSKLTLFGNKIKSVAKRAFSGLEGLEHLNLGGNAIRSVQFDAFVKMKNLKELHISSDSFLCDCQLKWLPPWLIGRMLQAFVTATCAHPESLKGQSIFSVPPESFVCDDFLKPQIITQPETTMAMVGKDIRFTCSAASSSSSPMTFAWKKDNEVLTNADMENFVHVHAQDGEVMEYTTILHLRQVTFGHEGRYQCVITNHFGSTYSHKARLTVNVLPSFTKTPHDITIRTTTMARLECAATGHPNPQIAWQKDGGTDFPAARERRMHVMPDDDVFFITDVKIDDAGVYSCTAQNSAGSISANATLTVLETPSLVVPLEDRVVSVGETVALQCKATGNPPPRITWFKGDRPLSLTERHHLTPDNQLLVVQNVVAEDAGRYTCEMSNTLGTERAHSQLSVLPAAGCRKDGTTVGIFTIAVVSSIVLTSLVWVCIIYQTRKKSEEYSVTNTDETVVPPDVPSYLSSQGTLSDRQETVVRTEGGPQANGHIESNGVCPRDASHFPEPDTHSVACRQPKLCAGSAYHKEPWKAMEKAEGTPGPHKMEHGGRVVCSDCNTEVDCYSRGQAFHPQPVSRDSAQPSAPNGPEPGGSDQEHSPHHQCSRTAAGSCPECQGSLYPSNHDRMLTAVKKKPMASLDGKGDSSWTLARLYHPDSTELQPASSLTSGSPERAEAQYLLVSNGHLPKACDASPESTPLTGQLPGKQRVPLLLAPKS

[2] = biological target: T2, purified VISTA (cross-linking mass spectrometry) (Homo sapiens (Human)) (UniProt Q9H7M9); test: chemical cross-linking (K200 kit) and High-Mass MALDI MS; 3.2 uM LRIG1 mixed with 0.6 uM VISTA
T2 sequence: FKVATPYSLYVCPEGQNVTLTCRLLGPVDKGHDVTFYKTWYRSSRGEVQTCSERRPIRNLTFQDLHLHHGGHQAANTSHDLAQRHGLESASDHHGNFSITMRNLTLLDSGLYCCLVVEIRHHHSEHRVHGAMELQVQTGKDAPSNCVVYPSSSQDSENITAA

[3] = biological target: T3, HA-tagged hVISTA (human) (UniProt Q9H7M9); test: co-immunoprecipitation from co-transfected 293T cells
T3 sequence: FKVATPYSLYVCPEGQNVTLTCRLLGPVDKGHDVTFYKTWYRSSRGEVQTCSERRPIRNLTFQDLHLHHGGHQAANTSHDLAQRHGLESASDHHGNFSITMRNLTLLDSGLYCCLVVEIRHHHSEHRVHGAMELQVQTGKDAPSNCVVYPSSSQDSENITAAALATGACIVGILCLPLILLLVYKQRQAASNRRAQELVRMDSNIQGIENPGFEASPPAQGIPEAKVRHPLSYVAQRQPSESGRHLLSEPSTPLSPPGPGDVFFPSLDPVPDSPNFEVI

binding [1]: binds
Molecule: HA-tagged hVISTA (from UniProt Q9H7M9 33-311) (receptor)

binding [2]: binds
B1: purified LRIG1 (cross-linking mass spectrometry) (receptor)
chain: AGPRAPCAAACTCAGDSLDCGGRGLAALPGDLPSWTRSLNLSYNKLSEIDPAGFEDLPNLQEVYLNNNELTAVPSLGAASSHVVSLFLQHNKIRSVEGSQLKAYLSLEVLDLSLNNITEVRNTCFPHGPPIKELNLAGNRIGTLELGAFDGLSRSLLTLRLSKNRITQLPVRAFKLPRLTQLDLNRNRIRLIEGLTFQGLNSLEVLKLQRNNISKLTDGAFWGLSKMHVLHLEYNSLVEVNSGSLYGLTALHQLHLSNNSIARIHRKGWSFCQKLHELVLSFNNLTRLDEESLAELSSLSVLRLSHNSISHIAEGAFKGLRSLRVLDLDHNEISGTIEDTSGAFSGLDSLSKLTLFGNKIKSVAKRAFSGLEGLEHLNLGGNAIRSVQFDAFVKMKNLKELHISSDSFLCDCQLKWLPPWLIGRMLQAFVTATCAHPESLKGQSIFSVPPESFVCDDFLKPQIITQPETTMAMVGKDIRFTCSAASSSSSPMTFAWKKDNEVLTNADMENFVHVHAQDGEVMEYTTILHLRQVTFGHEGRYQCVITNHFGSTYSHKARLTVNVLPSFTKTPHDITIRTTTMARLECAATGHPNPQIAWQKDGGTDFPAARERRMHVMPDDDVFFITDVKIDDAGVYSCTAQNSAGSISANATLTVLETPSLVVPLEDRVVSVGETVALQCKATGNPPPRITWFKGDRPLSLTERHHLTPDNQLLVVQNVVAEDAGRYTCEMSNTLGTERAHSQLSVLPAAGCRKDGTTVG

binding [3]: binds
B2: Flag-tagged hLRIG1 (receptor, not shown: small tags and cut ends)
chain: T1 sequence
